Experimental data taken from publication PMC10747599 (Viruses, 2023).

Columns and labels:
[1] = tested on: HBEC-5i cells; assay: MTT cell viability assay, HBEC-5i; settings: 20 µM, 48 h
[2] = Confirmatory dose-response assay, cytotoxicity (CC50); settings: African green monkey, Vero CCL81 cells

CCCCc1oc2ccccc2c1C(=O)c1cc(I)c(OCCN(CC)CC)c(I)c1 [Amiodarone]
reduction in cell viability / toxicity [1]: not toxic | CC50 at 72 h [2]: 25.7 µM
